Experimental data reported in US20230107034A1.
No constants are given. Whether binding was seen depends on the method and setting. Some entries that bind do so weakly or less than the wild type.

The chains behind the UniProt entries cited, without tags or fusion partners. Residues count along the entry.
UniProt P05067, residues 672-713: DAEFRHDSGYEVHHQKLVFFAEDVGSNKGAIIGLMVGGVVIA

Experiments:
[1] = molecular target: synthetic Aβ protofibrils (Aβ1-42-derived protofibrils) (UniProt P05067); experiment: binding profile column of Table 5
[2] = molecular target: synthetic Aβ protofibrils (Aβ1-42-derived protofibrils) (UniProt P05067); experiment: biochemical binding profile of hybridoma-purified mAbs
[3] = molecular target: amyloid plaques (Aβ deposits) in human AD brain sections (human) (UniProt P05067); experiment: immunohistochemistry on non-fixed brain cryo-sections
[4] = molecular target: amyloid plaques (Aβ deposits) in human AD brain sections (human) (UniProt P05067); experiment: immunohistochemistry on paraffin-embedded PFA-fixed brain sections
[5] = molecular target: amyloid plaques (Aβ deposits) in human AD brain sections (human) (UniProt P05067); experiment: immunohistochemistry on paraffin-embedded, PFA-fixed AD brain sections

binding [1] | binding [2] | Binder | other results
binds |  | B28 (hybridoma-purified mAb) (antibody, V domains shown) VH: QVQLVESGGGVVQPGRSVRLSCAATGFTFSSYGMHWVRQAPGKGLEWVAVIWFDGSNEYYADSVRGRFTISRDNSKNTLYLQMNSLRAEDTAVYYCARRGRVGVTRNYYYYNMDVWGQGTTVTVSS VL: AIQMTQSPSSLSASVGDRVTITCRASQGIRNDLGWFQQKPGKAPKLLIYPASSLQSGVPSRFSGSGSDTDFTLTISSLQPEDFATYYCLQDYNFPFTFGPGTKVDIK | 
binds | binds | B90 (hybridoma-purified mAb) (antibody, V domains shown) VH: QVQLVESGGGVVQPGRSLRLSCAASGFTFSSYGMHWVRQAPGKGLEWVAIIWYDGSKKYYADSVKGRFTISRDNSKNTLYLQMNSLRVEDTAVYYCARRGRVGATRDYYYYSMDVWGQGTTVTVSS VL: AIQMTQSPSSLSASVGDRVTITCRASQGIRNDLGWFHQKPGKAPKLLIYAASSLQSGVPSRFSGSGSGTDFTLTISSLQPEDFATYYCLQDYVYPWTFGQGTKVEIK | 
binds |  | B54 (hybridoma-purified mAb) (antibody, V domains shown) VH: QVQLVESGGGVVQPGRSLRLSCAASGFTFSTYGMHWVRQAPGKGLEWVALIWYDGSKKYYADSVQGRFTISRDSSKNTLYLQMNSLRVEDTAVYYCARRGRVGVTRNYYYYGMDVWGQGTTVTVSS VL: AIQMTQSPSSLSASVGDRVTITCRTSQDIRNDLGWFQQKPGKAPKFLIYPASSLQGGVPSRFSGSGSGTDFILTISSLQPEDFATYYCLQDYNFPWTFGEGTKVEIK | 
 |  | rB28 (recombinant B28, human IgG1 LALA) (antibody, V domains shown) VH: QVQLVESGGGVVQPGRSVRLSCAATGFTFSSYGMHWVRQAPGKGLEWVAVIWFDGSNEYYADSVRGRFTISRDNSKNTLYLQMNSLRAEDTAVYYCARRGRVGVTRNYYYYNMDVWGQGTTVTVSS VL: AIQMTQSPSSLSASVGDRVTITCRASQGIRNDLGWFQQKPGKAPKLLIYPASSLQSGVPSRFSGSGSDTDFTLTISSLQPEDFATYYCLQDYNFPFTFGPGTKVDIKR | binding [3]: binds; binding [4]: binds; binding [5]: binds
binds | binds | B73 (hybridoma-purified mAb) (antibody, V domains shown) VH: QLQLQMSGPGLVKPSETLSLTCTVSGGSISSSSYYWGWIRQSPGKGLEWIGSIYYSGRTYYNPSLKSRVTISVDTSKNQFSLKLSSVTAADTAMYYCARRSSGRPYYWGQGTLVTVSS VL: QAVVTQESALTTSPGGTVILTCRSSTGAVTTSNYANWVQEKPDHLFTGLIGETNNRAPGVPVRFSGSLIGDKAALTITGAQTEDDAMYFCALWYSTHWVFGGGTKLTVL | 
 |  | rB73 (recombinant B73, human IgG1 LALA) (antibody, V domains shown) VH: QLQLQMSGPGLVKPSETLSLTCTVSGGSISSSSYYWGWIRQSPGKGLEWIGSIYYSGRTYYNPSLKSRVTISVDTSKNQFSLKLSSVTAADTAMYYCARRSSGRPYYWGQGTLVTVSS VL: QAVVTQESALTTSPGGTVILTCRSSTGAVTTSNYANWVQEKPDHLFTGLIGETNNRAPGVPVRFSGSLIGDKAALTITGAQTEDDAMYFCALWYSTHWVFGGGTKLTVLG | binding [3]: binds
binds |  | B19 reprep (=B24) (antibody, V domains shown) VH: EVQLLESGGGLVQPGGSLRLSCAASGFTFSSYAMTWVRQAPGEGLEWVSTISGSGIRTYYADSVKGRFTISRDNSKNTMYLQMNSLRAEDTAVYYCAKDGLTGDRRWYFDLWGRGTLVTVSS VL: EIVMTQSPATLSLSPGERATLSCRASQSVSSSYFSWYQQKPGQAPRLLIYGASTRATGIPARFSGSGSGTDFTLTISSLQPEDFAVYYCQQDSNLPLTFGGGTKVEIK | 
binds | binds | B24 (hybridoma-purified mAb) (antibody, V domains shown) VH: EVQLLESGGGLVQPGGSLRLSCAASGFTFSSYAMTWVRQAPGEGLEWVSTISGSGIRTYYADSVKGRFTISRDNSKNTMYLQMNSLRAEDTAVYYCAKDGLTGDRRWYFDLWGRGTLVTVSS VL: EIVMTQSPATLSLSPGERATLSCRASQSVSSSYFSWYQQKPGQAPRLLIYGASTRATGIPARFSGSGSGTDFTLTISSLQPEDFAVYYCQQDSNLPLTFGGGTKVEIK | 
